Laboratory results reported in the supplement of paper PMC6411743.
± gives the standard deviation of the averaged measurements. Some of the results follow.

The chains behind the UniProt entries cited, without tags or fusion partners. Where a name states a change or a piece, a line headed by the entry shows the natural chain unless it says otherwise.
UniProt Q9BXL5: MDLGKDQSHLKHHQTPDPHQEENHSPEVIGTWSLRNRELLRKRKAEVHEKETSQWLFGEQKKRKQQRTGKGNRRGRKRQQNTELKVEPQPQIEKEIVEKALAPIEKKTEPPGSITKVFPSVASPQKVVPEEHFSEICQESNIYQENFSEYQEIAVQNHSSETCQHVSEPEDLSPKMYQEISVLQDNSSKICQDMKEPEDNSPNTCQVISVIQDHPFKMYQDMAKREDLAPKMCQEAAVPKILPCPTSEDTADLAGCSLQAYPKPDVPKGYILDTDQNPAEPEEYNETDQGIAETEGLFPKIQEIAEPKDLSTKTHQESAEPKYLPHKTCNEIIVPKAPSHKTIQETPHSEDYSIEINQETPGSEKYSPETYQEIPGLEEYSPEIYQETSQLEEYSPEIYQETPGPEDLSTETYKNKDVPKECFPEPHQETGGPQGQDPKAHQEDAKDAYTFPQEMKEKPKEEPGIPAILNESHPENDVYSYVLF
UniProt Q96KP1: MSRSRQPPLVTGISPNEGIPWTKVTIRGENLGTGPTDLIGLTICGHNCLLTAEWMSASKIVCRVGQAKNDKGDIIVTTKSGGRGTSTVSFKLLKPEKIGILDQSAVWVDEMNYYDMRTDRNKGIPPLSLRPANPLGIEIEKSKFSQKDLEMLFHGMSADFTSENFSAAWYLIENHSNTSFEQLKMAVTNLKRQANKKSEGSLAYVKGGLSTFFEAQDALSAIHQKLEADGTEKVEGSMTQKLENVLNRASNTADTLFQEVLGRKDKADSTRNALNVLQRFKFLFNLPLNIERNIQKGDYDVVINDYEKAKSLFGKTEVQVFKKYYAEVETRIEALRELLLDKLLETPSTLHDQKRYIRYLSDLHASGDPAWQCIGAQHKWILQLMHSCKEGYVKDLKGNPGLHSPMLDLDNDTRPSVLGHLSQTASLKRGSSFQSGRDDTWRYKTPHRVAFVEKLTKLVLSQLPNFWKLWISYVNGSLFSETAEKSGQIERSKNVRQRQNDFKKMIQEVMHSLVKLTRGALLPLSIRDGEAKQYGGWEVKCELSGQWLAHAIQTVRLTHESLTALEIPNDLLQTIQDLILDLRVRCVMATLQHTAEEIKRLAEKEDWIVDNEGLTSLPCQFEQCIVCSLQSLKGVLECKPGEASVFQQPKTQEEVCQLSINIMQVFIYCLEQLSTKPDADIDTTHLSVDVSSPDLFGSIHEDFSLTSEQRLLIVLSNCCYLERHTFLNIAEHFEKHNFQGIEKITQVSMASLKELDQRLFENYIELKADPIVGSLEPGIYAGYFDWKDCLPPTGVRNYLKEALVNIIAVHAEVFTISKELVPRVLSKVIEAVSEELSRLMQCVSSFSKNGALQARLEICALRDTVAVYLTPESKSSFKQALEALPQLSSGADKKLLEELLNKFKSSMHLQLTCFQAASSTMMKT
UniProt Q96PU8: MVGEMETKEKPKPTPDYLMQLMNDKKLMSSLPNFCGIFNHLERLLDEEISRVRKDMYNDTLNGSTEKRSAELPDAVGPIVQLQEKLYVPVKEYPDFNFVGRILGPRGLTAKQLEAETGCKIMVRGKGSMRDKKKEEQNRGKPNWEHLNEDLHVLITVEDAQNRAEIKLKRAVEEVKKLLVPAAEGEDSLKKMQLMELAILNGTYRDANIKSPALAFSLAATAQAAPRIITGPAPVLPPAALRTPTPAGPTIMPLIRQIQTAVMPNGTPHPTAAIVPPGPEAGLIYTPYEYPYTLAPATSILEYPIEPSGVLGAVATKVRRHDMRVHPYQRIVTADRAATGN
UniProt Q9BX68: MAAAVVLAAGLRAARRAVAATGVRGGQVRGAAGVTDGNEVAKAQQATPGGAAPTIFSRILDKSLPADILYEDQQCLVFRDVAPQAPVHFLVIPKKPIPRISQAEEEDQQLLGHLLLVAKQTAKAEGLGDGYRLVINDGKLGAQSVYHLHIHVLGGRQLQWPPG
UniProt Q9BYM8: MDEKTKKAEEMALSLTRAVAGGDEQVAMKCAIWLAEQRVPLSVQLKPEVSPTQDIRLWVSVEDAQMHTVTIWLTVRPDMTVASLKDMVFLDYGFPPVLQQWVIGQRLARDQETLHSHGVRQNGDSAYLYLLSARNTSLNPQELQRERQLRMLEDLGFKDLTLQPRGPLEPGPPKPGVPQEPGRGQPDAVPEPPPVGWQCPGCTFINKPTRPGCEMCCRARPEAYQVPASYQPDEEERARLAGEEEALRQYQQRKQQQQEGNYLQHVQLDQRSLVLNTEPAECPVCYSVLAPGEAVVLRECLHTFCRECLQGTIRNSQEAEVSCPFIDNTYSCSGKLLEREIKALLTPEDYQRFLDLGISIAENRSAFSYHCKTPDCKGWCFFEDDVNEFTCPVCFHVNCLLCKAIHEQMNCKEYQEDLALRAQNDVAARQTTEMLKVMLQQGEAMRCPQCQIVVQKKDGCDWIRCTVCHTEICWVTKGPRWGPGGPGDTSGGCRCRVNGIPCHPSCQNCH
UniProt Q9BT25: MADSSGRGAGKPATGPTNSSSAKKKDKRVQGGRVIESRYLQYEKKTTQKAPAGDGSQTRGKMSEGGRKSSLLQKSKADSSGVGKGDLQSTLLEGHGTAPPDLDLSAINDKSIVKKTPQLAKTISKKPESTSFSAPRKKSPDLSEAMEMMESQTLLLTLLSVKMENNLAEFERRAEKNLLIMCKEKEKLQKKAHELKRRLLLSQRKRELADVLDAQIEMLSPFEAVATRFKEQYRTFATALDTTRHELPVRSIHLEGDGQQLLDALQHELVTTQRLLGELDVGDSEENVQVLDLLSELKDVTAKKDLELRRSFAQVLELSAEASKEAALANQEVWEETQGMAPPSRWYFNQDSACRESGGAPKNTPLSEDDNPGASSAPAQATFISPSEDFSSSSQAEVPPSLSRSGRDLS
UniProt Q9BUQ8: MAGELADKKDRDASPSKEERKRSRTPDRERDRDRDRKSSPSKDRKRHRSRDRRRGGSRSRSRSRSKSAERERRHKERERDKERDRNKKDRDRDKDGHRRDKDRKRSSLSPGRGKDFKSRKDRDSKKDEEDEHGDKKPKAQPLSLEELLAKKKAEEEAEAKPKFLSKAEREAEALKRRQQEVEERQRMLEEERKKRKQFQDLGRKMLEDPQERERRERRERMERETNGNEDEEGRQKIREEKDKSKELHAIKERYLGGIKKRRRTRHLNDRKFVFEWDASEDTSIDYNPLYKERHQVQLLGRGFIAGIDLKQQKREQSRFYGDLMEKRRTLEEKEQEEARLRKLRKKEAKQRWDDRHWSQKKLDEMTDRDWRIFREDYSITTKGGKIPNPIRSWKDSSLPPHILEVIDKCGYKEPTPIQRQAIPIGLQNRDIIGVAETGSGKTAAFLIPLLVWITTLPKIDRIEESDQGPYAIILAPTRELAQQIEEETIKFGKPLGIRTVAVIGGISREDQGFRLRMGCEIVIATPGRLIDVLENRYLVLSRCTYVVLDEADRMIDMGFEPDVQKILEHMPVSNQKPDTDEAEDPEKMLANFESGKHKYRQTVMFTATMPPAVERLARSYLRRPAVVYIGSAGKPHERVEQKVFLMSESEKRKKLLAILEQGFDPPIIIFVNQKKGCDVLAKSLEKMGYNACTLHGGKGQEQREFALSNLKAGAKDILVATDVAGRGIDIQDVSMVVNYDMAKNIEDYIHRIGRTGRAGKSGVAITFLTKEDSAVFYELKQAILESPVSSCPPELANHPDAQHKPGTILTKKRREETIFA
UniProt Q9BW71: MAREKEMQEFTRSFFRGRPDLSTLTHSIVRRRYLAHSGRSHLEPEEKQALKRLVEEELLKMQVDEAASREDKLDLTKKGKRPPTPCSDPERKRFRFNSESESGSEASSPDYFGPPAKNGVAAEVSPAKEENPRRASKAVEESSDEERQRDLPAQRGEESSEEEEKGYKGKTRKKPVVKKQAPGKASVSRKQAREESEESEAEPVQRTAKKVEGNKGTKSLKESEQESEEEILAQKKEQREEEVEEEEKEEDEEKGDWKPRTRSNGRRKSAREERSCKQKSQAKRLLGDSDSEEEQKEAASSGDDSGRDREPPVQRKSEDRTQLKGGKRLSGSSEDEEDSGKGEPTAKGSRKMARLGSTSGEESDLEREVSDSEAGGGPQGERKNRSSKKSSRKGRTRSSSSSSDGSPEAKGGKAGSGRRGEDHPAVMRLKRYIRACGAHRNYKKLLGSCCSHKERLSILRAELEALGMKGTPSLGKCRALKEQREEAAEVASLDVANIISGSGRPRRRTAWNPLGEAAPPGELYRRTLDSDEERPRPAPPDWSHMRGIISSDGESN
UniProt Q96TC7: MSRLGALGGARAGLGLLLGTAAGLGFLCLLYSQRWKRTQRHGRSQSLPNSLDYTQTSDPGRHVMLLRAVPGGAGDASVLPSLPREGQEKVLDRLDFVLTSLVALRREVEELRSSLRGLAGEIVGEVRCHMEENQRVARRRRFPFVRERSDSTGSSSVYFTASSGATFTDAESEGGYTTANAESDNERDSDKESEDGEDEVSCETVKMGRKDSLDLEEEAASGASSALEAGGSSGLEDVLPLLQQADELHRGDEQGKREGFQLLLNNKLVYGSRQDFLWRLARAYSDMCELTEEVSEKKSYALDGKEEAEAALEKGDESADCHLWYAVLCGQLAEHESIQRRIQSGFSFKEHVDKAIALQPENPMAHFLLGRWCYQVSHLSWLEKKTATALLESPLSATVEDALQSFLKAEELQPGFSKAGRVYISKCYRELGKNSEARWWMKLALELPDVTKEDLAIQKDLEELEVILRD
UniProt Q9BUK6: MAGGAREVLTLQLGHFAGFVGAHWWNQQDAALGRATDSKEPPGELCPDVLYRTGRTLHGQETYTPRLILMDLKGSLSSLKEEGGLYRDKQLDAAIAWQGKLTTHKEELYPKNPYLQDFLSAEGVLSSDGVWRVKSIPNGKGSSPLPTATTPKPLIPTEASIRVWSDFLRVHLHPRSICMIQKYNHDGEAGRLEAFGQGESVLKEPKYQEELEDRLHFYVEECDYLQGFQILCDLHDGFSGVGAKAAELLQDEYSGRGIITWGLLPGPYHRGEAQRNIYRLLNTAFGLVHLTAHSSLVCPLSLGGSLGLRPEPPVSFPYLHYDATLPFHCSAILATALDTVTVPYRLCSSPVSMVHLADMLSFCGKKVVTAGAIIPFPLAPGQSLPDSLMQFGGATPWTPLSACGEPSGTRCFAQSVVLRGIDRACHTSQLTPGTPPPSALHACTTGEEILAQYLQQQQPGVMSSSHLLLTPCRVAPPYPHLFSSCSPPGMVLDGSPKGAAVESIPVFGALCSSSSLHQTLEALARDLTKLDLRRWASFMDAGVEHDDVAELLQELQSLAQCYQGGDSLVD
UniProt Q99856: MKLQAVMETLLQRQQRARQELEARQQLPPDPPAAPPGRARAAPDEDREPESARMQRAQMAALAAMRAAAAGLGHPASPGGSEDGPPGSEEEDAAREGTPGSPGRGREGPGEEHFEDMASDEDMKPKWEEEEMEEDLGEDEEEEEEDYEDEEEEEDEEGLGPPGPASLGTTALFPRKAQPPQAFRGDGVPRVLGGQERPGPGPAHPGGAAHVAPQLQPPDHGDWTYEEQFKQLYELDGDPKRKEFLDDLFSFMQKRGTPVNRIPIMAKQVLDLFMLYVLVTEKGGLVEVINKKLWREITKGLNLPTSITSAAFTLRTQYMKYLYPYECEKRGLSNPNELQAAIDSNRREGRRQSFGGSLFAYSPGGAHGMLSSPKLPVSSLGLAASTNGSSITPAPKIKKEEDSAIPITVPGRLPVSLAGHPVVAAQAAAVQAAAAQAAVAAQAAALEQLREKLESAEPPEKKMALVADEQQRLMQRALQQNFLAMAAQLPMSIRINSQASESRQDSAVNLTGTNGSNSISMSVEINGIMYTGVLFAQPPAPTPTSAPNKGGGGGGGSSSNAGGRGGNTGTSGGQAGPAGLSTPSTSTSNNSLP
UniProt Q9BSC4: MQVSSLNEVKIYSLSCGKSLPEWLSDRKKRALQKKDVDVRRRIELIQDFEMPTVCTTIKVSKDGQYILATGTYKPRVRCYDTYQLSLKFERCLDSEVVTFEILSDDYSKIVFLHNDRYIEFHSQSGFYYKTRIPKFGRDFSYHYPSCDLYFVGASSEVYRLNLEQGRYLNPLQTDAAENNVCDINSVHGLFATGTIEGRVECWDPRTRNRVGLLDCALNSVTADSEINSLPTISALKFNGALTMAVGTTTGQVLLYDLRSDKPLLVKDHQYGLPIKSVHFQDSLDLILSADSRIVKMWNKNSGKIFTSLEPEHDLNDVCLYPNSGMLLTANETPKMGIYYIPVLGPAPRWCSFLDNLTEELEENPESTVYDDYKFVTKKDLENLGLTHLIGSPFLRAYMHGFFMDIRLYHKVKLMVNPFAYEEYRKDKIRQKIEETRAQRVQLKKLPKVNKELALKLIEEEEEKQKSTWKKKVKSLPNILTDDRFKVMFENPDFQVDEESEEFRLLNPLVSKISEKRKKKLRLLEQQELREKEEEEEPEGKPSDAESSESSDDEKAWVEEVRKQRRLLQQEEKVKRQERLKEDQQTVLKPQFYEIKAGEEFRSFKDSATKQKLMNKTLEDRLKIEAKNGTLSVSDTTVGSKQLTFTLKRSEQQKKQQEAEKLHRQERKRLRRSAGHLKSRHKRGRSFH

Compound: Nc1nc2c(ncn2[C@@H]2O[C@H](COP(=O)(O)OP(=O)(O)OP(=O)(O)O)[C@@H](O)[C@H]2O)c(=O)[nH]1 [guanosine triphosphate]
Assay: NP40-soluble protein abundance relative to vehicle (solubility fold change) (ratio); higher = more soluble protein in presence of GTP
Summary of the method: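 Jurkat crude lysate (Dounce-homogenised) was treated with eight concentrations from 0.1 to 10 mM for 10 min at room temperature, then 3 min at 37 °C. It was solubilised with 0.8% NP40 and benzonase (60 min, 4 °C) and ultracentrifuged, and the supernatant was TMT-labelled for LC-MS/MS. Intensities were vsn-normalised, and the value is the fold change against the NP40-processed vehicle per replicate, from three independent experiments.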

Target	NP40-soluble protein abundance (concentration: 0.1mM)	NP40-soluble protein abundance (concentration: 0.5mM)	NP40-soluble protein abundance (concentration: 1mM)	NP40-soluble protein abundance (concentration: 2mM)	NP40-soluble protein abundance (concentration: 4mM)	NP40-soluble protein abundance (concentration: 6mM)	NP40-soluble protein abundance (concentration: 8mM)	NP40-soluble protein abundance (concentration: 10mM)
HEMGN (UniProt Q9BXL5)	0.943 ± 0.05	0.978 ± 0.058	1.04 ± 0.12	1.04 ± 0.11	0.98 ± 0.11	0.994 ± 0.15	1.03 ± 0.052	1.09 ± 0.034
ACAT2 (UniProt Q9BWD1)	0.926 ± 0.041	0.963 ± 0.028	0.901 ± 0.06	0.907 ± 0.043	0.85 ± 0.061	0.898 ± 0.056	0.871 ± 0.036	0.908 ± 0.04
EXOC2 (UniProt Q96KP1)	1.01 ± 0.0031	1.04 ± 0.066	0.979 ± 0.023	1 ± 0.064	1.03 ± 0.058	0.98 ± 0.083	1.02 ± 0.067	1 ± 0.045
CPPED1 (UniProt Q9BRF8)	1.03 ± 0.021	0.979 ± 0.054	0.94 ± 0.09	0.907 ± 0.093	0.923 ± 0.06	0.872 ± 0.094	0.89 ± 0.084	0.813 ± 0.13
UniProt Q96PU8 and related entries	0.968 ± 0.053	0.897 ± 0.05	1.01 ± 0.13	1 ± 0.037	0.985 ± 0.081	0.974 ± 0.058	0.982 ± 0.066	1.05 ± 0.083
UniProt Q9BX67	1.04 ± 0.013	0.954 ± 0.065	0.965 ± 0.026	0.913 ± 0.066	0.905 ± 0.046	0.88 ± 0.086	0.953 ± 0.035	0.897 ± 0.06
UniProt Q96RW7 and related entries	1.17 ± 0.29	1.11 ± 0.23	0.938 ± 0.16	1.06 ± 0.37	0.985 ± 0.2	0.889 ± 0.19	0.892 ± 0.13	0.924 ± 0.16
HINT2 (UniProt Q9BX68)	1.01 ± 0.095	0.918 ± 0.031	0.987 ± 0.088	0.945 ± 0.12	0.998 ± 0.056	0.919 ± 0.052	0.988 ± 0.13	0.962 ± 0.1
UniProt Q9BSW2-2	1.02 ± 0.035	1.03 ± 0.055	1.06 ± 0.035	1.01 ± 0.083	0.987 ± 0.056	0.979 ± 0.11	0.999 ± 0.008	1.04 ± 0.031
GPATCH1 (UniProt Q9BRR8)	1.02 ± 0.03	0.998 ± 0.02	1.04 ± 0.057	1.1 ± 0.1	1.1 ± 0.072	1.05 ± 0.086	1.17 ± 0.11	1.22 ± 0.064
UniProt Q96P48 and related entries	1.09 ± 0.066	1.04 ± 0.033	0.994 ± 0.021	1.01 ± 0.054	1.04 ± 0.1	1 ± 0.079	1.01 ± 0.089	0.962 ± 0.035
WDR92 (UniProt Q96MX6)	1.03 ± 0.071	1.06 ± 0.12	0.998 ± 0.11	1.07 ± 0.14	1.04 ± 0.15	1.06 ± 0.19	1.02 ± 0.12	1.01 ± 0.13
UniProt Q9BYM8 and related entries	1.04 ± 0.029	0.946 ± 0.061	0.961 ± 0.054	0.962 ± 0.05	1.02 ± 0.1	0.995 ± 0.14	0.94 ± 0.016	0.897 ± 0.036
UniProt Q9BT25 and related entries	0.8741 ± 0.0087	0.89 ± 0.026	1.03 ± 0.087	1.02 ± 0.044	0.953 ± 0.11	0.979 ± 0.048	0.999 ± 0.057	1.05 ± 0.11
DDX23 (UniProt Q9BUQ8)	1.04 ± 0.036	1.09 ± 0.067	1.19 ± 0.12	1.27 ± 0.075	1.55 ± 0.18	1.62 ± 0.19	1.89 ± 0.28	1.93 ± 0.23
UniProt Q9BYG3	1.01 ± 0.018	1.04 ± 0.042	1.02 ± 0.046	1.07 ± 0.067	1.07 ± 0.071	1.12 ± 0.035	1.12 ± 0.061	1.18 ± 0.036
TRIM56 (UniProt Q9BRZ2)	0.984 ± 0.064	0.984 ± 0.086	0.984 ± 0.027	0.995 ± 0.078	0.976 ± 0.15	1.02 ± 0.1	1.06 ± 0.066	1.03 ± 0.11
DNAJC7 (UniProt Q99615)	0.981 ± 0.038	0.968 ± 0.051	0.975 ± 0.048	0.948 ± 0.056	0.93 ± 0.058	0.959 ± 0.064	0.977 ± 0.054	0.947 ± 0.056
ACBD6 (UniProt Q9BR61)	0.943 ± 0.063	0.911 ± 0.059	0.955 ± 0.053	0.952 ± 0.075	0.932 ± 0.11	0.935 ± 0.092	0.9 ± 0.08	0.949 ± 0.064
HIRIP3 (UniProt Q9BW71)	0.932 ± 0.071	0.925 ± 0.089	1.01 ± 0.1	0.983 ± 0.15	1.04 ± 0.14	1.07 ± 0.14	1.13 ± 0.06	1.14 ± 0.094
UniProt Q9BSJ8	1.01 ± 0.035	1.02 ± 0.028	0.958 ± 0.021	0.966 ± 0.018	0.943 ± 0.037	0.928 ± 0.011	0.913 ± 0.025	0.916 ± 0.025
UniProt Q99549 and related entries	0.982 ± 0.069	1.04 ± 0.078	1.04 ± 0.04	1.07 ± 0.075	1.06 ± 0.023	1.13 ± 0.013	1.15 ± 0.048	1.21 ± 0.072
UniProt Q96TC7	1.02 ± 0.032	0.977 ± 0.03	1.1 ± 0.028	1.07 ± 0.08	1.04 ± 0.047	1.08 ± 0.1	1.07 ± 0.11	1.03 ± 0.09
UniProt Q9BUK6 and related entries	1.023 ± 0.0083	0.975 ± 0.025	0.97 ± 0.047	0.957 ± 0.02	0.958 ± 0.059	0.966 ± 0.074	0.969 ± 0.02	0.93 ± 0.068
UniProt Q96RU2-2	1.04 ± 0.12	0.994 ± 0.2	1.08 ± 0.15	1.05 ± 0.14	1.13 ± 0.2	1.06 ± 0.17	1.21 ± 0.16	1.14 ± 0.16
UniProt Q9BQ15-2|Q9BQ15	1.01 ± 0.065	1.08 ± 0.28	1.12 ± 0.23	1.16 ± 0.36	1.14 ± 0.19	1.08 ± 0.25	1.16 ± 0.2	1.16 ± 0.27
DOK1 (UniProt Q99704)	1.01 ± 0.032	0.99 ± 0.036	0.996 ± 0.029	0.95 ± 0.013	0.907 ± 0.046	0.966 ± 0.036	0.9435 ± 0.0054	0.919 ± 0.019
ARID3A (UniProt Q99856)	0.959 ± 0.084	0.94 ± 0.09	1.02 ± 0.12	0.966 ± 0.15	0.935 ± 0.098	0.942 ± 0.1	0.986 ± 0.076	0.991 ± 0.091
UniProt Q9BSC4 and related entries	0.98 ± 0.12	1.03 ± 0.1	1.13 ± 0.13	1.21 ± 0.17	1.3 ± 0.18	1.39 ± 0.16	1.49 ± 0.18	1.64 ± 0.24
UniProt Q96Q89 and related entries	1.04 ± 0.027	1.05 ± 0.05	1.05 ± 0.054	1.03 ± 0.043	0.979 ± 0.031	0.997 ± 0.017	1.05 ± 0.044	0.978 ± 0.03

A few values from the list.
In NP40-soluble protein abundance (concentration: 10mM), UniProt Q99549 and related entries is listed with 1.21 ± 0.072
In NP40-soluble protein abundance (concentration: 4mM), EXOC2 (UniProt Q96KP1) is listed with 1.03 ± 0.058
